PubChem BioAssay AID652243 | Drosophila RNAi Screening Center | 2013
The deposit covers about 24,000 reagents; shown is a random part of those that have a named target and a result. Over the whole deposit, 246 (1%) got an active call. 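Plates not normalised; calls are printed but the firefly/Renilla ratio behind them is not deposited; fold cut for lowering reported inconsistently.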 Raw values vary from plate to plate and are shown uncorrected. A number with no mark means an inactive call. Reagent sequences are not shown. The record does not give: the amount of reagent.

Purpose: 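Fly regulators of androgen-dependent reporter output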 (primary screen)
Cell system: Drosophila S2R+ cells
Reagent: long dsRNA against Drosophila genes
Timing: 72 h (48 h, then 24 h hormone)
Conditions: synthetic androgen R1881 at 10 nM for 24 h
Read-out: 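Firefly light from an androgen-responsive reporter and Renilla control light per well, raw and unnormalised, for each of two replicates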
Scale: firefly reporter light: higher = more light from androgen-responsive reporter; Renilla control light: higher = more constitutive control signal (cell number, transfection)
Hit rule: 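Across duplicate plates, a knock-down whose log firefly/Renilla ratio shifted a set fold down or up from the GFP/LacZ control mean was a hit; the downward cut appears as both 1.5 and 3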
Calls: active = hit: reporter lowered or raised; inactive = no hit

What did the screen give for Fpgs2 [DRSC00600]?
firefly reporter light, replicate 1: 97907; firefly reporter light, replicate 2: 82504; Renilla control light, replicate 1: 5.88e5; Renilla control light, replicate 2: 9.02e5

Which result is listed for CG40188 (retired record) [DRSC37762]?
firefly reporter light, replicate 1: 1.08e6; firefly reporter light, replicate 2: 9.53e5; Renilla control light, replicate 1: 2.35e6; Renilla control light, replicate 2: 2.55e6

How did the screen score CG30487 [DRSC05377]?
firefly reporter light, replicate 1: 1.10e5; firefly reporter light, replicate 2: 1.36e5; Renilla control light, replicate 1: 1.96e5; Renilla control light, replicate 2: 2.94e5

With CG6118 [DRSC23197], what does the deposit list?
firefly reporter light, replicate 1: 3.18e5; firefly reporter light, replicate 2: 3.70e5; Renilla control light, replicate 1: 1.62e6; Renilla control light, replicate 2: 1.63e6

For CG6118 [DRSC29922], what does the deposit list?
firefly reporter light, replicate 1: 7.45e5; firefly reporter light, replicate 2: 4.75e5; Renilla control light, replicate 1: 1.50e6; Renilla control light, replicate 2: 1.51e6

Targets above whose gene name begins with C or c:
CG40188 (retired record) [DRSC37762] — firefly reporter light, replicate 1 = 1.08e6; firefly reporter light, replicate 2 = 9.53e5; Renilla control light, replicate 1 = 2.35e6; Renilla control light, replicate 2 = 2.55e6
CG30487 [DRSC05377] — firefly reporter light, replicate 1 = 1.10e5; firefly reporter light, replicate 2 = 1.36e5; Renilla control light, replicate 1 = 1.96e5; Renilla control light, replicate 2 = 2.94e5
CG6118 [DRSC23197] — firefly reporter light, replicate 1 = 3.18e5; firefly reporter light, replicate 2 = 3.70e5; Renilla control light, replicate 1 = 1.62e6; Renilla control light, replicate 2 = 1.63e6
CG6118 [DRSC29922] — firefly reporter light, replicate 1 = 7.45e5; firefly reporter light, replicate 2 = 4.75e5; Renilla control light, replicate 1 = 1.50e6; Renilla control light, replicate 2 = 1.51e6

Further reagents follow:
With CG34370 [DRSC03913], what does the deposit list?
firefly reporter light, replicate 1: 2.63e5; firefly reporter light, replicate 2: 2.34e5; Renilla control light, replicate 1: 3.09e5; Renilla control light, replicate 2: 4.46e5

For CG34370 [DRSC04142], what was measured?
firefly reporter light, replicate 1: 1.75e5; firefly reporter light, replicate 2: 2.24e5; Renilla control light, replicate 1: 1.43e6; Renilla control light, replicate 2: 1.68e6

For CG34370 [DRSC04143], what does the deposit list?
firefly reporter light, replicate 1: 3.76e5; firefly reporter light, replicate 2: 2.98e5; Renilla control light, replicate 1: 2.01e6; Renilla control light, replicate 2: 1.51e6

For CG34370 [DRSC04144], what does the deposit list?
firefly reporter light, replicate 1: 1.88e5; firefly reporter light, replicate 2: 2.95e5; Renilla control light, replicate 1: 1.57e6; Renilla control light, replicate 2: 1.30e6

How did the screen score CG34370 [DRSC26263]?
firefly reporter light, replicate 1: 4.77e5; firefly reporter light, replicate 2: 5.56e5; Renilla control light, replicate 1: 5.04e5; Renilla control light, replicate 2: 5.62e5

With CG34370 [DRSC37760], how do the results read?
firefly reporter light, replicate 1: 9.32e5; firefly reporter light, replicate 2: 1.07e6; Renilla control light, replicate 1: 1.76e6; Renilla control light, replicate 2: 1.87e6

How did the screen score Usp8 [DRSC15876]?
firefly reporter light, replicate 1: 95272; firefly reporter light, replicate 2: 72432; Renilla control light, replicate 1: 6.91e5; Renilla control light, replicate 2: 5.68e5

With Cpsf100 [DRSC14146], what was measured?
firefly reporter light, replicate 1: 1.39e5; firefly reporter light, replicate 2: 1.03e5; Renilla control light, replicate 1: 1.01e6; Renilla control light, replicate 2: 7.04e5

How did the screen score Cpsf100 [DRSC28396]?
firefly reporter light, replicate 1: 3.79e5; firefly reporter light, replicate 2: 8.69e5; Renilla control light, replicate 1: 6.45e5; Renilla control light, replicate 2: 1.49e6
